# Reference: PubChem BioAssay (EPA / NIEHS)
# Chains of the proteins cited; added tags and fusions are not shown. Lines headed by an entry give the natural chain unless they say otherwise; changes in a name come on top.
# UniProt P16257, whole entry, looked up: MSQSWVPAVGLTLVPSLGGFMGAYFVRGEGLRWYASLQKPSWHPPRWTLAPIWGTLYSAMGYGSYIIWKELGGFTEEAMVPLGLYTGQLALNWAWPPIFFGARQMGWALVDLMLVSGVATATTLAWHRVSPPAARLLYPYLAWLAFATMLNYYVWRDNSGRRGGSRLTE
# UniProt P10275: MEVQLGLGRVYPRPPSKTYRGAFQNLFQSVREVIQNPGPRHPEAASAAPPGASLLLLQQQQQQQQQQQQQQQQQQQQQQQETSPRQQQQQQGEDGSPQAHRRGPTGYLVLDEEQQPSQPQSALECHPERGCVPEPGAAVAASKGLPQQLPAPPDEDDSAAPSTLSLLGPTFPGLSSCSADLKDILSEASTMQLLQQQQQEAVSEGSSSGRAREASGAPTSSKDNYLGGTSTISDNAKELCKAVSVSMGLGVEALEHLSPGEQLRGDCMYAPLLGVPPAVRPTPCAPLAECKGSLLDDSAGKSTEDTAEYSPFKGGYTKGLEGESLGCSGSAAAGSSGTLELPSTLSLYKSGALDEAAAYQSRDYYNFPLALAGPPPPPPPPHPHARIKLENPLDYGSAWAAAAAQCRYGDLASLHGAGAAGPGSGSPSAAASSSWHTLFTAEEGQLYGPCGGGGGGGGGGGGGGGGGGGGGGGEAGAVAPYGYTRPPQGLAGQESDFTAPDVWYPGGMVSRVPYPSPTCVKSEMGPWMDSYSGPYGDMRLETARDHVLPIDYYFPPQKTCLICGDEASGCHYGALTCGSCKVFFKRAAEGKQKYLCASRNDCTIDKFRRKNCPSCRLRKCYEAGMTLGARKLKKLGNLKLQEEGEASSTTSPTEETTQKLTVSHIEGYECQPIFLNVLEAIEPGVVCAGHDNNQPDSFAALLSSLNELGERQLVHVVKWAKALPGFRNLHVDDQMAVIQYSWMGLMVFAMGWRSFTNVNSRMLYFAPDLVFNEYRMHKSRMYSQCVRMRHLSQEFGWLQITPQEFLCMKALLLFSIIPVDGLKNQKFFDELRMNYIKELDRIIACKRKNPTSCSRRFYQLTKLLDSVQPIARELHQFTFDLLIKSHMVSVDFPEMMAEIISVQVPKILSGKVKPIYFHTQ
# UniProt P42336, whole entry, looked up: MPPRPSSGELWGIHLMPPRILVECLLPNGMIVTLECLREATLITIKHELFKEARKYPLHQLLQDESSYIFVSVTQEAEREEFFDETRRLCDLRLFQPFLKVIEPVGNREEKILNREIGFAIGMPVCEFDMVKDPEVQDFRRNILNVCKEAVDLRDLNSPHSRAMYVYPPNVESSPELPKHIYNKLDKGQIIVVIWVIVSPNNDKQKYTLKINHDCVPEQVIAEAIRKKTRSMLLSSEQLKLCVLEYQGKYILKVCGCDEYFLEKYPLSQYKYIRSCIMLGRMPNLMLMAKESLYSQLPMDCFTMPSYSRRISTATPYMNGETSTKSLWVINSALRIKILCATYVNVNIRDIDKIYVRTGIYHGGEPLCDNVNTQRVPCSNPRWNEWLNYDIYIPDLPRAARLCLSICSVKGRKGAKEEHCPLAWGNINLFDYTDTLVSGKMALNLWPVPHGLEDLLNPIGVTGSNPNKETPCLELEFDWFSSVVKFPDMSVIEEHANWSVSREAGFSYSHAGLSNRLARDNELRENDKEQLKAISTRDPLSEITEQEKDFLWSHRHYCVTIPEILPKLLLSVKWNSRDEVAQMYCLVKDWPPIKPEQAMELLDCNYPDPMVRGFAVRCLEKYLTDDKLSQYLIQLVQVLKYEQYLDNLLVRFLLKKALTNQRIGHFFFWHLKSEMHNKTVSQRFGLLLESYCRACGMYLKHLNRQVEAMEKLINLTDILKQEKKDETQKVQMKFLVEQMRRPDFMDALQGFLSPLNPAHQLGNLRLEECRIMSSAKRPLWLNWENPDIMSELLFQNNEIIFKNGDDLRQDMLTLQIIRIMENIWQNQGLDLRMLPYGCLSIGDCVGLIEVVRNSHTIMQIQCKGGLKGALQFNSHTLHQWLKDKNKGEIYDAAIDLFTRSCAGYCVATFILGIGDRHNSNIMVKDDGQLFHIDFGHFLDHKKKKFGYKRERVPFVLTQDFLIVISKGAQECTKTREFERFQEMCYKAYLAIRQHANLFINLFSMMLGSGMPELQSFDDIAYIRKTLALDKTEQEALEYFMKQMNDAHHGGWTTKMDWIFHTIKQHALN
# UniProt P31749: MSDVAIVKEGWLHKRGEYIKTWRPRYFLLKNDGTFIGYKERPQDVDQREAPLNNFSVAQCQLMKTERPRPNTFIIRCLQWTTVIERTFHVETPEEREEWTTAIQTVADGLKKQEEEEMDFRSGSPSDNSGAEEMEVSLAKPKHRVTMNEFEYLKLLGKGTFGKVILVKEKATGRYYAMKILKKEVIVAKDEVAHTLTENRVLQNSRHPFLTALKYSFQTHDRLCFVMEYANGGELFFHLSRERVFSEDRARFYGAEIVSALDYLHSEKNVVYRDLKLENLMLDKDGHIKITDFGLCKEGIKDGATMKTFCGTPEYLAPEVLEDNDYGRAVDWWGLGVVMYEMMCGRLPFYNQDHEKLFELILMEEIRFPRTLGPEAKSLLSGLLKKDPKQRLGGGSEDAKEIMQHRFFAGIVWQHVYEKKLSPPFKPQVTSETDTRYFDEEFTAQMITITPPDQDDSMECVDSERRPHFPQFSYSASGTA
# UniProt Q14994: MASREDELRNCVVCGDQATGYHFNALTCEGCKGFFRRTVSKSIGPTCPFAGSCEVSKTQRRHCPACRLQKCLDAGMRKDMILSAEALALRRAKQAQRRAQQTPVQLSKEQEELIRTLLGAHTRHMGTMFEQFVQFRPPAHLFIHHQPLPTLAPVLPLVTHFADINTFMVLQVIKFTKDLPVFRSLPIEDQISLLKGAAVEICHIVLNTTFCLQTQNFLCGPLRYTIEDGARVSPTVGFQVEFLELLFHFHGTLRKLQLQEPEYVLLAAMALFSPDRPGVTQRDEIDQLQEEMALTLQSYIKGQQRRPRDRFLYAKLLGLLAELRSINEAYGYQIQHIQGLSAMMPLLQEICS
# UniProt P08684, whole entry, looked up: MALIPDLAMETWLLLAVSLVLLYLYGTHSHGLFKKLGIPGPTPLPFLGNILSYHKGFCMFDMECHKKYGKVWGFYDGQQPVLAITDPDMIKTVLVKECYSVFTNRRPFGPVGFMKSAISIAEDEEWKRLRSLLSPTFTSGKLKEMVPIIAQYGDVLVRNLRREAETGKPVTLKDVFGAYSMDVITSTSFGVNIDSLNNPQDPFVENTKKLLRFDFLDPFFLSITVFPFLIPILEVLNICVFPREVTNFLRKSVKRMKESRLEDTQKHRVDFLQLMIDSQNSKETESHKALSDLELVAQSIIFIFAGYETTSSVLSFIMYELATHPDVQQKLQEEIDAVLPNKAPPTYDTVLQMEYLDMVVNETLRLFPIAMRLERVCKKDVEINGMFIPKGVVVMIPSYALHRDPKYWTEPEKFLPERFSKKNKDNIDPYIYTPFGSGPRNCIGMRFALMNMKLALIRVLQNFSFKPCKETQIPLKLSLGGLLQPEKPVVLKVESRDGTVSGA
# UniProt P03372, whole entry, looked up: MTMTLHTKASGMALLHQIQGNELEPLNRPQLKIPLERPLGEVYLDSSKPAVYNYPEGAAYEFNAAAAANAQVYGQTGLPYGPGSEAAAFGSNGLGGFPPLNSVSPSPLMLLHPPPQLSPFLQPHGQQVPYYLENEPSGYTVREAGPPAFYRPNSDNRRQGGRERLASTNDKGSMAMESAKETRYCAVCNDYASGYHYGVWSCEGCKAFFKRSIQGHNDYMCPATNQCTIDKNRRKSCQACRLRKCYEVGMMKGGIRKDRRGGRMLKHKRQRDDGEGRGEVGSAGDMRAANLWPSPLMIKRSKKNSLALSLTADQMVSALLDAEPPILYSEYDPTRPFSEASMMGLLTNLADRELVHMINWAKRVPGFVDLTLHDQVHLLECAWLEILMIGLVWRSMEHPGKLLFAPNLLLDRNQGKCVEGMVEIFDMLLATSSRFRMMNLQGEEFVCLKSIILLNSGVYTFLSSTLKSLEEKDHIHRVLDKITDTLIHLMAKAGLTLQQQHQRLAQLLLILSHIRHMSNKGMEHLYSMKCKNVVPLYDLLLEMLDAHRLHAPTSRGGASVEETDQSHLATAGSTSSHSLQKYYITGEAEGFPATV
# Inconclusive results, whose numbers are uncertain, are shown with a selection of clear calls. For part of these data: Potencies beside an inconclusive call are fits to weak or partial responses and may not hold up. Active and inactive are the calls of the source. Rule for the calls: active = hit-call score of the fitted dose curve at least 0.9, where 1 is the maximum; inconclusive = response in the unintended direction; inactive = score below 0.9.
# What was measured:
# [1] = Tanguay_ZF_120hpf_EYE_legacy: (Legacy) Oregon State University Tanguay Lab 120 Hour Post-fertilization zebrafish Assay for Eye Malformation (AID 2283636);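 note: binary presence or absence of eye malformation scored by brightfield in 120 hpf larvae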
# How it was run: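 Static waterborne exposure of dechorionated zebrafish embryos (strain Tropical 5D), 6 to 120 hpf, sealed plates at 28C, 0.64% DMSO vehicle. Eye malformation is scored as a binary endpoint, with gain of signal analysed relative to DMSO.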
# [2] = Tanguay_ZF_120hpf_CFIN_legacy: (Legacy) Oregon State University Tanguay Lab 120 Hour Post-fertilization zebrafish Assay for Caudal Fin Malformation (AID 2283649)
# How it was run: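 Binary brightfield scoring of caudal fin defects at 120 hpf after static, light-shielded exposure at 28C from 6 hpf. Tropical 5D embryos, chorion removed with pronase at 4 hpf, final DMSO 0.64%.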
# [3] = STM_H9_NormalizedViability: Cytotoxicity Assessment at 120 hours in the Stemina devTOX quickPredict H9 human embryonic stem cell (hESC)-based Assay (AID 2283784)
# How it was run: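 CellTiter-Fluor RFU, background-subtracted, expressed relative to 0.1% DMSO neutral control by plate. Pluripotent H9 cells; treatment with daily re-dosing. Plates carried 1uM methotrexate (positive) and 5 nM methotrexate (negative) references.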
# [4] = target: rat Peripheral-type Benzodiazepine Receptor (PBR), Tspo (gene 24230) (UniProt P16257); test: NVS_MP_rPBR: NovaScreen (NVS) Membrane Protein Assay for rat Peripheral-type Benzodiazepine Receptor (PBR) (AID 2283335)
# How it was run: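 Single-concentration duplicate screening at 25 uM preceded concentration-series retesting of actives. Binding of a specific radioligand to rat kidney membrane PBR was read by filtration radiodetection after 1 h, with plate-wise positive and negative controls.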
# [5] = Tanguay_ZF_120hpf_JAW_legacy: (Legacy) Oregon State University Tanguay Lab 120 Hour Post-fertilization zebrafish Assay for Jaw Malformation (AID 2283638);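 for AC50: active means more embryos with jaw malformation than DMSO controls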
# How it was run: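 Binary jaw-malformation call at 120 hpf by brightfield microscopy. Embryos (Tropical 5D strain, chorion removed at 4 hpf) were dosed statically at 6 hpf, one per well, at 28C with 0.64% DMSO. Embryos that died were not scored.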
# [6] = read-out: glucuronosyltransferase (UGT1A1), UGT1A1 (gene 54658); test: CLD_UGT1A1_6hr: CellzDirect (CLD) Gene Expression Assay for glucuronosyltransferase (UGT1A1) at 6 hours (AID 2283672)
# How it was run: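 UGT1A1 mRNA induction, read by quantitative nuclease protection assay, 6 h after dosing primary human hepatocytes (two donors, 0.2% DMSO vehicle). Gain of signal fitted relative to vehicle.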
# [7] = read-out: ABC Transporter (ABCB1), ABCB1 (gene 5243); test: CLD_ABCB1_24hr: CellzDirect (CLD) Gene Expression Assay for ABC Transporter (ABCB1) at 24 hours (AID 2283684);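 note: potency for increase in ABCB1 mRNA relative to DMSO vehicle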
# How it was run: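 ABCB1 mRNA induction versus 0.2% DMSO vehicle was read by qNPA chemiluminescence at 24 h. Cultured human hepatocytes from two donor preparations received daily fresh dosing, and phase-contrast cytotoxicity calls were annotated alongside the data.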
# [8] = Tanguay_ZF_120hpf_PIG_legacy: (Legacy) Oregon State University Tanguay Lab 120 Hour Post-fertilization zebrafish Assay for Pigmentation Malformation (AID 2283650)
# How it was run: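 Endpoint is incidence of abnormal pigmentation at 120 hpf in dechorionated 5D zebrafish exposed singly from 6 hpf at 28C, DMSO vehicle at 0.64%. Embryos dying by 24 or 120 hpf are excluded from scoring.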
# [9] = read-out: xenobiotic metabolism (CYP1A2), CYP1A2 (gene 1544); test: CLD_CYP1A2_24hr: CellzDirect (CLD) Gene Expression Assay for xenobiotic metabolism (CYP1A2) at 24 hours (AID 2283683)
# How it was run: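 CYP1A2 mRNA induction measured by quantitative nuclease protection (chemiluminescent) in human primary hepatocytes 24 h after multi-concentration chemical dosing with daily fresh solutions. DMSO (0.2%) baseline; positive-direction fitting; morphology-based cytotoxicity noted.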
# AR (gene 367) = AR (gene 367) (UniProt P10275); test: ACEA_AR_antagonist_80hr: ACEA Biosciences xCELLigence Real-Time Cell Analysis on Androgen Receptor Antagonism for Proliferation (AID 2283787);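 note: 22Rv1 human prostate cancer cells with growth followed by electrical impedance; hits lower the impedance growth signal relative to DMSO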
# How it was run: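 Using 22Rv1 cells held in assay medium, we dosed compounds (100 uM maximum final, 1:4 serial, eight points, 0.5% DMSO at top) and recorded cell-electrode impedance; the 80 hr timepoint was analyzed against DMSO.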
# [10] = target: Ratio of Nucleoli Translocation and Cytoplasm, AR (gene 367) (UniProt P10275); test: UPITT_HCI_U2OS_AR_TIF2_Nucleoli_Cytoplasm_Ratio_Agonist: University of Pittsburgh U2OS Androgen Receptor-Transcriptional Intermediary Factor 2 (AR-TIF2) Agonism High Content Imaging Assay for Ratio of Nucleoli Translocation and Cytoplasm (AID 2284000);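 note: hits raise the red nucleolar to cytoplasm ratio above vehicle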
# How it was run: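 Primary screen at 20 uM final (0.2% DMSO), then triplicate confirmation and dose-response from 0.195 to 50 uM final (0.5% DMSO). Cells: U2OS with AR-RFP and TIF2-GFP. Endpoint is the nucleoli/cytoplasm red-fluorescence ratio, gain-of-signal vs DMSO.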
# [11] = target: human Phosphoinositide 3-kinase alpha (PI3Ka), PIK3CA (gene 5290) (UniProt P42336); test: NVS_ENZ_hPI3Ka: NovaScreen (NVS) Enzymatic Assay for human Phosphoinositide 3-kinase alpha (PI3Ka) (AID 2283196)
# How it was run: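 Fluorescence/mobility-shift readout of substrate conversion by recombinant enzyme, 1 h post-dosing. Primary screen in duplicate at 25 uM; actives (e.g. ≥30% inhibition) retested in singleton concentration-response, top concentration 50 uM.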
# [12] = CCTE_Shafer_MEA_dev_AB: CCTE's Alamar Blue Assay for Cytotoxicity in the Neural Network Formation Assay, Shafer Lab (AID 2284083);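 note: resazurin reduction fluorescence as viability of cultured neurons; twelve days of exposure from plating with re-dosing on DIV 5 and 9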
# How it was run: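 Rat cortical primary cultures, 1.5 x 10^5 cells/well on MEA; continuous compound exposure over 12 days of network development, re-dosed with full medium change DIV 5 and 9. Alamar Blue fluorescence; loss of signal = cytotoxicity vs DMSO baseline.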
# [13] = Tanguay_ZF_120hpf_TRUN_legacy: (Legacy) Oregon State University Tanguay Lab 120 Hour Post-fertilization zebrafish Assay for Truncated Body (AID 2283655)
# How it was run: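 Binary presence/absence of truncated body is recorded at 120 hpf by brightfield, with non-mortality endpoints skipped after death. Exposure is static from 6 hpf in sealed dark plates at 28C, using dechorionated wild-type zebrafish, 0.64% DMSO.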
# [14] = CCTE_Shafer_MEA_dev_LDH: CCTE's Lactate Dehydrogenase Assay for Cytotoxicity in the Neural Network Formation Assay, Shafer Lab (AID 2284068);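 note: exposure for twelve days from plating with re-dosing on DIV 5 and 9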
# How it was run: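 Rat cortical primary neurons, MEA culture; dosing day 0–12, full medium plus compound exchange DIV 5, 9. Read-out: LDH enzyme activity, spectrophotometric. DMSO = negative control/baseline; signal loss → cytotoxicity.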
# [15] = CCTE_Mundy_HCI_hNP1_Pro_ResponderAvgInten: CCTE's Proliferation Assay in human neuroprogenitor cells, Mundy Lab (AID 2284224);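 note: human neural progenitor cells hNP1 derived from WA09 embryonic stem cells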
# How it was run: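 Human neuroprogenitors (hNP1, WA09 lineage) receive test chemical after 40 to 44 hours of attachment. A four-hour BrdU pulse begins twenty hours later, followed by fixation and high content imaging; signal is referenced to DMSO controls.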
# [16] = target: human AKT serine/threonine Kinase 1 (AKT1), AKT1 (gene 207) (UniProt P31749); test: NVS_ENZ_hAKT1: NovaScreen (NVS) Enzymatic Assay for human AKT serine/threonine Kinase 1 (AKT1) (AID 2283138)
# How it was run: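 Fluorescence and mobility-shift readout of kinase activity, taken 1 h post-dosing in a cell-free format with recombinant protein. Primary screen at 25 uM in duplicate; hits (e.g. 30% inhibition) retested in concentration series topping at 50 uM.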
# [17] = target: human Constitutive Androstane Receptor (CAR), NR1I3 (gene 9970) (UniProt Q14994); test: NVS_NR_hCAR_Antagonist: NovaScreen (NVS) Nuclear Receptor Binding Assay for human Constitutive Androstane Receptor Antagonism (CAR) (AID 2283344)
# How it was run: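 Single 25 uM duplicate primary screen, with concentration-series follow-up on actives. Cell-free binding format run in antagonist mode, TR-FRET signal taken 1 h post-dose; activity is signal loss relative to DMSO.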
# [18] = target: Cytochrome P450 3A4 (Homo sapiens) (UniProt P08684); test: NVS_ADME_hCYP3A4: NovaScreen (NVS) CYP450-related Enzyme Activity (ADME) Assay for human CYP3A4 (AID 2283110)
# How it was run: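 Activity is derived from decreased fluorescence intensity relative to acetonitrile, measured 0.33 hour after dosing insect-cell-expressed CYP3A4 in a cell-free format. Screening used 10 uM in duplicate before concentration-response follow-up.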
# [19] = target: Estrogen receptor (Homo sapiens) (UniProt P03372); test: CCTE_Deisenroth_AIME_384WELL_LUC_Active: CCTE's 384-well Estrogen Receptor Transactivation Assay with AIME metabolic competence (ERTA luciferase; metabolism positive), Deisenroth Lab (AID 2284030)
# How it was run: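 VM7Luc4E2 breast cells were given, for 24 hours, medium pre-incubated for 2 hours with parent chemical (0.002-200 uM, 10 concentrations) and alginate-encapsulated phenobarbital/beta-naphthoflavone-induced rat hepatic S9. Luciferase gain of signal was fitted against 17beta-estradiol; n=4 or more.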
structure (smiles),measurement,setting,value
Clc1ccc(C(Cl)(Cl)Cl)cc1,outcome,[1],inactive
same,AC50,[2],inconclusive: 2.22 µM
same,AC50,[3],active: 83.6 µM
O=[N+]([O-])c1ccc2c3c(cccc13)CC2,AC50,[4],active: 13.3 µM
Cc1ccc(N=CN(C)C=Nc2ccc(C)cc2C)c(C)c1,AC50,[5],inconclusive: 1.23 µM
same,AC50,[6],inconclusive: 1.12 nM
same,AC50,[7],active: 28.2 µM
COCc1cnc(C2=NC(C)(C(C)C)C(=O)N2)c(C(=O)O)c1 (stereo unspecified),outcome,[8],inactive
same,AC50,[9],inconclusive: 1.75 µM
same,AC50,[7],inconclusive: 20 µM
same,outcome,[3],inactive
same,AC50,AR (gene 367),inconclusive: 0.61 nM
Clc1ccc(Oc2ccccc2)cc1,AC50,[10],inconclusive: 50 µM
O=C(O)C(F)(F)C(F)(F)C(F)(F)C(F)(F)C(F)(F)C(F)(F)C(F)(F)C(F)(F)F,AC50,[11],inconclusive: 1.65 µM
same,outcome,[5],inactive
same,AC50,[12],inconclusive: 8.38 µM
C=CC(N)=O,outcome,[1],inactive
same,AC50,[13],inconclusive: 128 µM
same,outcome,[14],inactive
same,AC50,[15],inconclusive: 0.255 nM
O=C(O)C(Cl)Cl,AC50,[3],inconclusive: 19.1 µM
CCOP(=S)(OCC)SCn1c(=O)oc2cc(Cl)ccc21,outcome,[16],inactive
same,AC50,[5],inconclusive: 2.1 µM
same,AC50,[2],inconclusive: 200 µM
same,AC50,[7],inconclusive: 20 µM
CCOP(=O)(OCC)Oc1cc(C)nc(C(C)C)n1,AC50,[16],inconclusive: 25 µM
same,AC50,[4],inconclusive: 25 µM
same,AC50,[7],inconclusive: 20 µM
same,outcome,[14],inactive
same,AC50,[12],inconclusive: 0.115 µM
same,AC50,[15],inconclusive: 2.41 nM
CCS(=O)(=O)c1cccnc1S(=O)(=O)NC(=O)Nc1nc(OC)cc(OC)n1,AC50,[17],inconclusive: 25 µM
CCCCOCN(C(=O)CCl)c1c(CC)cccc1CC,AC50,[18],active: 9.74 µM
same,AC50,[17],active: 14.6 µM
same,outcome,[10],inactive
same,AC50,[19],inconclusive: 724 nM

# A stretch from further up, for reference:
structure (smiles),measurement,setting,value
CCCCOCN(C(=O)CCl)c1c(CC)cccc1CC,AC50,[17],active: 14.6 µM
same,outcome,[10],inactive
